Experimental data from patent US20090123463A1.
Results are given in words; binding and its absence hold for the method and conditions named. Binding can be weak; no strength is given.

Biological target: FAT domain of FAK
Experiment: phage display

WHWQWTPWSIQP [Peptide-35 (…; SEQ ID NO: 1)]
binding: binds
